A short description of the data set: general procedure: Fmoc solid-phase peptide synthesis; NovaSyn TGR; HBTU/NMM. The following applies: whole synthesis, scale 0.1 mmol.

“TKFTLSLDVPTNIMNLLFNIAKAKNLRCQAAANAHLMAQI-NH2”: the crude mass is 408 mg and the crude yield is 92% yield.
